Source: paper PMC12775802, “Dual targeting of AMRC12 and Malassezia globosa disrupts MYC liquid condensates-driven nuclear pore complex biogenesis in neuroblastoma” (Theranostics, 2026)
These are yes or no findings as the source states them, for the method shown. Binding seen in cells or lysates may run through a third protein. A result given as binding can be weak or reduced; the word gives no strength.

Legend:
[1] = target: transcription factor MYC, endogenous (human (endogenous in SH-SY5Y, SK-N-AS)); assay: co-IP; endogenous proteins in SH-SY5Y and SK-N-AS cells, western blot; also cells treated with solvent or TCZ (20 uM), DMSO or UU-T02 (1.0 uM)
[2] = target: MYC-VN173 (human); assay: split reporter; split Venus BiFC, SK-N-BE(2) cells co-transfected for 24 h, confocal microscopy

binding [1] | binding [2] | Binder
binds |  | armadillo repeat containing 12 (ARMC12), endogenous (protein, UniProt Q5T9G4-2 1-367) MGKSIPQYLGQLDIRKSVVSLATGAGAIYLLYKAIKAGIKCKPPLCSNSPICIARECPGPGERALPQEAPAPEASAVGGPKGLAVERERHGRDSGELRRLLNSLECKQDEYAKSMILHSITRCVYLLEAEASACTTDDIVLLGYMLDDKDNSVKTQALNTLKAFSGIRKFRLKIQEHSIKVLELISTIWDTELHIAGLRLLNNLPLPDYVHPQLRRVMPALMEILQSDYILAQVQAVRLLSYLAQKNDLLYDILNCQVHSNFLNLFQPTQSGSLLYEVLVFAERLSEGRNAPHYHVVKWHYNEQSLHESLFGEESRLADRLLALVIHPEEDVQIQACKVIVSLQYPQDLRARPSSCQPSRSYFKNTE
 | binds | ARMC12-VC155 (protein, UniProt Q5T9G4-2 1-367) MGKSIPQYLGQLDIRKSVVSLATGAGAIYLLYKAIKAGIKCKPPLCSNSPICIARECPGPGERALPQEAPAPEASAVGGPKGLAVERERHGRDSGELRRLLNSLECKQDEYAKSMILHSITRCVYLLEAEASACTTDDIVLLGYMLDDKDNSVKTQALNTLKAFSGIRKFRLKIQEHSIKVLELISTIWDTELHIAGLRLLNNLPLPDYVHPQLRRVMPALMEILQSDYILAQVQAVRLLSYLAQKNDLLYDILNCQVHSNFLNLFQPTQSGSLLYEVLVFAERLSEGRNAPHYHVVKWHYNEQSLHESLFGEESRLADRLLALVIHPEEDVQIQACKVIVSLQYPQDLRARPSSCQPSRSYFKNTE
